Patent US6808875B2, “Methods for screening cellular proliferation using isotope labels” (priority 1997, dated 2004)
Several values for one entry are separate records, joined by “and”; a condition that tells them apart may be missing. Equal entries are not always repeated.

How the values were obtained:
[1] = test system: hepatocyte cell line, HepG2; test: Label incorporation into dA of DNA in cultured HepG2 cells (GC-MS, cell counting); assay type: cell-based
Method: (§1) DNA was prepared from cells or tissues by phenol-chloroform-isoamyl alcohol extraction of cell suspensions or tissue homogenates. Yield and purity were confirmed by optical density. After heat denaturation, DNA was hydrolyzed enzymatically to deoxyribonucleosides by sequential digestion with nuclease P1, phosphodiesterase, and alkaline phosphatase, as described by Crain et al. (Crain, 1990, Methods Enzymol. 193:782-790). Nucleoside yield and purity were confirmed by HPLC using a C-18 column and water-methanol gradient (Shigenaga et al., 1994, Methods Enzymol. 234:16-33).
(§2) Trimethylsilyl derivatives of nucleosides were synthesized by incubation of lyophilized hydrolysates with BSTFA:pyridine (4:1) at 100° C. for 1 hour. Samples were analyzed by GC-MS (DB-17 HT column, J&W Scientific, Folsom Calif.; HP 5890 GC and 5971MS, Hewlett Packard, Palo Alto, Calif.). Abundances of ions at mass to charge ratio (m/z) 467 and 469 were quantified under selected ion recording mode for deoxyadenosine (dA); and m/z 555 and 557 were monitored for deoxyguanosine (dG). Under the derivatization and GC-MS conditions employed, the purines (dA and dG) gave larger peaks (FIG. 3) than the pyrimidines, resulting in greater sensitivity and a higher signal-to-noise ratio. To measure the enrichment of glucose, plasma or culture media were deproteinized with perchloric acid and passed through anion and cation exchange columns (Neese et al., 1995, J. Biol. Chem. 270:14452-14463). The glucose penta-acetate derivative was formed by incubation with acetic anhydride in pyridine. GC-MS analysis was performed as described previously (Neese et al., 1995, J. Biol. Chem […]), monitoring m/z 331 and 333 under selected ion recording.
(§3) Two cell lines were used: a hepatocyte cell line, HepG2, and a lymphocytic cell line, H9, which is a CD4^+ T cell line. HepG2 cells were grown in 10 ml dishes with alpha-modified Dulbecco's minimum essential media (MEM). H9 cells were grown in suspension in RPMI 1640. Both were grown in the presence of 10% dialyzed fetal calf serum and antibiotics (all reagents were obtained from Gibco-BRL, Gaithersburg, Md., except where stated). In both cases the number of cells present was measured by counting an aliquot on a Coulter ZM0901 cell counter. For HepG2 cells, plating efficiency was corrected for by counting an identical plate at the beginning of each labeling phase. […] In some experiments, glucose free medium was used and only 100% labeled glucose was present in the medium. Additional experiments were carried out in the presence of [U-^13C6] glucose and [2-^13C1] glycerol (Cambridge Isotope Laboratories, Andover, Mass.).
(§4) The above cell culture experiments were performed in the absence of deoxyribonucleosides in the medium. […]

[2] = test system: lymphocytic cell line, H9; test: Label incorporation into dA of DNA in cultured H9 cells (GC-MS, cell counting); assay type: cell-based
Method: as §1, §2, §3, §4

[3] = test system: intestinal epithelium, thymus, liver; test: In vivo incorporation of [6,6-^2H2] glucose into dA in DNA in various tissues in rats; details: for dA Enrichment: ca. 24 hr iv infusion
[4] = rat intestinal epithelium, linear kinetic model

Which “Maximum enrichment of dA” value ([1]; HepG2, 100% labeled glucose medium, 53 days) does the source give for `[2H]C([2H])(O)[C@H]1OC(O)[C@H](O)[C@@H](O)[C@@H]1O` (some centres unmarked) [[6,6-^2H2] glucose] here?
The value was “about 65%”.

What about the “Maximum enrichment of dA” value ([2]; H9, 100% labeled glucose medium, 25 days) of the same molecule?
Its value is “about 65%”.

What about the “Estimated plateau dA enrichment, as fraction of the medium glucose enrichment” value ([2]; H9, extrapolation to 100% new cells) of the same molecule?
Its value is 0.525.

What about the “Percent New Cells, Uncorrected” value ([3]; rat intestinal epithelium) of the same molecule?
The value was 34.6 ± 4.2.

And the “dA Enrichment” value ([3]; rat intestinal epithelium)?
The value was 3.18 ± 0.24%.

And the “Turnover time, Corrected” value [3, 4]?
The value was 1.8 ± 0.2 days and 1.84 ± 0.24 days.

What about the “Turnover time, Uncorrected” value [3, 4] of the same molecule?
The value was 2.8 ± 0.4 days and 2.83 ± 0.37 days.

What about the “Percent New Cells, Corrected” value ([3]; rat intestinal epithelium, […] plasma glucose enrichment) of the same molecule?
The value was 53.2 ± 6.5.

And the “Percent New Cells, Corrected” value ([3]; rat liver)?
Its value is 4.2 ± 0.9.

What about the “Percent New Cells, Uncorrected” value ([3]; rat liver) of the same molecule?
The value was 2.7 ± 0.5.

And the “dA Enrichment” value ([3]; rat liver)?
The value was 0.25 ± 0.06%.

And the “Rate Constant, K, Corrected” value ([3]; rat liver, exponential model)?
Its value is 0.044 ± 0.008 day⁻¹.

What about the “Rate Constant, K, Uncorrected” value ([3]; rat liver, exponential model) of the same molecule?
Its value is 0.028 ± 0.005 day⁻¹.

What about the “t1/2, Corrected” value ([3]; rat liver, exponential model) of the same molecule?
The value was 16.2 ± 3.1 days.

What about the “t1/2, Uncorrected” value ([3]; rat liver, exponential model) of the same molecule?
The value was 25.4 ± 4.9 days.

What about the “Percent New Cells, Corrected” value ([3]; rat thymus) of the same molecule?
Its value is 38.9 ± 3.1.

And the “Percent New Cells, Uncorrected” value ([3]; rat thymus)?
Its value is 25.3 ± 2.2.

What about the “dA Enrichment” value ([3]; rat thymus) of the same molecule?
Its value is 2.33 ± 0.08%.

And the “Rate Constant, K, Corrected” value ([3]; rat thymus, exponential model)?
Its value is 0.51 ± 0.058 day⁻¹.

What about the “Rate Constant, K, Uncorrected” value ([3]; rat thymus, exponential model) of the same molecule?
The value was 0.302 ± 0.030 day⁻¹.

And the “t1/2, Uncorrected” value ([3]; rat thymus, exponential model)?
The value was 2.31 ± 0.23 days.

With `OC[13CH](O)CO` [[2-^13C1] glycerol] as the molecule, how does the “Incorporation of ^13C into dA” value ([1]; HepG2, 20 μg/ml) read?
The value was “negligible incorporation”.

What about the “dA pentose ring synthesis arising from GNG (MIDA)” value ([1]; HepG2, 100 μg/ml) of the same molecule?
Its value is 17.8%.

What about the “GNG contribution to dA (MIDA)” value ([2]; H9, 100 μg/ml) of the same molecule?
Its value is “no measurable GNG”.

With `O[13CH2][13C@H]1O[13CH](O)[13C@H](O)[13C@@H](O)[13C@@H]1O` (some centres unmarked) [[U-^13C6] glucose] as the molecule, how does the “Asymptote of M5 enrichment of dA, % of the extracellular enrichment” value ([1]; HepG2, 10% labeled glucose) read?
Its value is “approximately 80%”.

What about the “Asymptote of M5 enrichment of dA, % of extracellular glucose enrichment” value ([2]; H9, 10% labeled glucose) of the same molecule?
The value was “approximately 60%”.
